This series deals with T1, MCPH1 196-435-MBP (Homo sapiens) (UniProt Q8NEM0).
T1 sequence (looked up): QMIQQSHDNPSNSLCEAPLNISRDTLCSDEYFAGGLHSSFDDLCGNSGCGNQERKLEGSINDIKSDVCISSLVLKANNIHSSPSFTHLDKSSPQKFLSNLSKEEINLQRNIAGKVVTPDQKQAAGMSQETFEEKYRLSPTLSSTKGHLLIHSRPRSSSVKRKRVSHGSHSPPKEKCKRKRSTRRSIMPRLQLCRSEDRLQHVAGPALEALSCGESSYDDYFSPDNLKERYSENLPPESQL
As to the kind of experiment: EMSA. To be noted: 50 nM DNA, higher concentration than 1-435 needed for complete shift; EMSA with 50 nM 5'-Cy5 50 bp dsDNA; EMSA buffer; recombinant protein; residues 196-435; protein details: His6 and MBP (named C-terminal MBP in Fig 7); label: 5' Cy5. Background: A gel shift assay detects complexes by their altered migration in electrophoresis.

A weaker result is weaker than the reference pair of the same experiment. Where a protein sequence is shown, tags need not be part of it.

Consider “CTGTCACACCCTGTCACACCCTGTCACACCCTGTCACACCCTGTCACACC (double strand) [50 bp dsDNA]”, for which the binding result is given as “binds more weakly”.

For the origin of these results see article PMC8673838, “MCPH1 inhibits Condensin II during interphase by regulating its SMC2-Kleisin interface” (eLife, 2021).
